Results deposited as PubChem BioAssay AID1159584 (Peter MacCallum Cancer Centre, 2016).
Screen: 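Genes that CDH1-null MCF10A cells selectively depend on to survive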 (primary screen). Cell system: human MCF10A breast epithelial cells, parental and CDH1-null. Reagents: siRNA against human genes. Measurement: 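Cell viability by CellTiter-Glo ATP luminescence, each line scaled to the mean of mock wells across plates, then CDH1-null over parental ratio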. Reading the numbers: CDH1-null / parental viability ratio: higher = CDH1-null cells survive relatively better than parental; CDH1-null viability vs mock: higher = more viable CDH1-null cells.
Here is a random part of about 18,000 deposited reagents. Not all columns of the deposit are shown. Not stated in the record: the amount of reagent, the time to read-out.

With knock-down of SGK1 the results were CDH1-null / parental viability ratio 1.11; CDH1-null viability vs mock (fraction of mock) = 1.2. RALGAPB showed CDH1-null / parental viability ratio 1.22; CDH1-null viability vs mock (fraction of mock) = 0.96. Against OR51D1 the deposit lists CDH1-null / parental viability ratio 1.53; CDH1-null viability vs mock (fraction of mock) = 1.12. With knock-down of ITIH5, the record shows CDH1-null / parental viability ratio 0.9; CDH1-null viability vs mock (fraction of mock) = 0.81. For PGM2 the deposit lists CDH1-null / parental viability ratio 0.8; CDH1-null viability vs mock (fraction of mock) = 0.48. With knock-down of RC3H1, the record shows CDH1-null / parental viability ratio 0.85; CDH1-null viability vs mock (fraction of mock) = 0.73.

Knock-down of PSMB9 resulted in: CDH1-null / parental viability ratio 1.15; CDH1-null viability vs mock (fraction of mock) = 0.62. Depletion of KCTD6 gave: CDH1-null / parental viability ratio 1.2; CDH1-null viability vs mock (fraction of mock) = 0.97. Knock-down of NCALD came out at: CDH1-null / parental viability ratio 1.37; CDH1-null viability vs mock (fraction of mock) = 0.82. CFAP44 scored CDH1-null / parental viability ratio 0.9; CDH1-null viability vs mock (fraction of mock) = 1. PLCB4 scored CDH1-null / parental viability ratio 0.98; CDH1-null viability vs mock (fraction of mock) = 0.95. CTNNBIP1 scored CDH1-null / parental viability ratio 1.68; CDH1-null viability vs mock (fraction of mock) = 0.94.

ZNF20 gave CDH1-null / parental viability ratio 1.5; CDH1-null viability vs mock (fraction of mock) = 0.84. DDT scored CDH1-null / parental viability ratio 1.02; CDH1-null viability vs mock (fraction of mock) = 0.9.

2 entries from above in another layout.
{"gene knocked down":"RALGAPB","CDH1-null / parental viability ratio":1.22,"CDH1-null viability vs mock (fraction of mock)":0.96}
{"gene knocked down":"OR51D1","CDH1-null / parental viability ratio":1.53,"CDH1-null viability vs mock (fraction of mock)":1.12}
